Reference: PubChem BioAssay AID504834 (National Center for Advancing Translational Sciences (NCATS), 2011)
Among all 320,000 compounds or so, about 22,000 (6.9%) were called active. The inconclusive results got no clear call from the source; some entries with a clear call stand among them for comparison. Calls follow the shape of the dose curve; as a rule, active = well fitted inhibition curve with a large enough effect; inconclusive = small, poorly fitted or top-dose-only effect, or another doubt; inactive = no such curve, though single readings can be large or run the other way. Where the call is inconclusive, the potency comes from a doubtful curve fit.

Assay: Primary qHTS for delayed death inhibitors of the malarial parasite plastid, 96 hour incubation
Settings: P. falciparum luciferase reporter growth; series mostly up to 28.7 µM; activity change, negative = inhibition: at the top concentration
In short: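 Infected RBCs, 2% Hct / 0.05% parasitemia final; luciferase-reporter P. falciparum; cpd 96 h, 37 C, 5% CO2; luciferase detection reagent; luminescence.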
% is scaled to controls: 0 for no effect and ±100 for the full control effect; potency is read from the fitted curve at half-maximal effect.

Question: For `CCCCNC(=O)COC(=O)c1c2c(nc3ccccc13)CCC2`, which Potency is on record?
Answer: The Potency was inconclusive: 9.28 µM [inhibitor, partial curve].

Question: With `Cc1nc(CS(=O)(=O)c2ccc(Cl)cc2)cc(Sc2ccc(Cl)cc2)n1` as the compound, how does the Potency read?
Answer: Its Potency is active: 2.33 µM.

Question: Which Potency does the source give for `CCN1C(=O)/C(=C\c2ccc3c(c2)OCO3)C(C(=O)OC)=C1C` here?
Answer: The Potency was active: 1.85 µM.

Question: Which Potency does the source give for `Cc1cc(C=C2C(=O)N(C)C(=O)N(C)C2=O)c(C)n1-c1ccccc1` here?
Answer: The Potency was inconclusive: 18.5 µM [inhibitor, single point].

Question: Which Potency does the source give for `CC1Cc2cc(S(=O)(=O)N3CCN(c4ccccc4)CC3)ccc2N1C(=O)C1CC1` (stereo unspecified) here?
Answer: Its Potency is inconclusive: 11.7 µM [inhibitor, single point].

Question: Which Potency does the source give for `CC(C)Nc1nc(NC(C)C)nc(Oc2ccc(OCc3ccccc3)nn2)n1` here?
Answer: The Potency was inconclusive: 3.29 µM [inhibitor, partial curve].

Question: For `O=C(NNC(=O)c1cccs1)c1ccc(Cl)nc1`, which “activity change, negative = inhibition” value is on record?
Answer: The value was inactive: 31.8%.

Question: With `CCOc1ccc(-c2nnc(NC(=O)C3CCCC3)o2)cc1` as the compound, how does the “activity change, negative = inhibition” value read?
Answer: Its value is inactive: 67.9%.

Question: With `Cc1nc2ccccc2n1CCC(=O)Nc1cccc(F)c1` as the compound, how does the Potency read?
Answer: Its Potency is inconclusive: 9.28 µM [inhibitor, single point].

Question: For `CS(=O)(=O)N1CCC(C(=O)NCCc2ccccc2)CC1`, which “activity change, negative = inhibition” value is on record?
Answer: The value was inactive: 4.6%.

Question: For `O=C(NCC1CCCO1)c1cc2c([nH]c3ccccc32)c(-c2cccc(Cl)c2)n1` (stereo unspecified), which Potency is on record?
Answer: The Potency was active: 5.86 µM.

Question: Which Potency does the source give for `O=C1CC(Sc2ccc(Cl)cc2)C(=O)N1c1ccc2c(c1)OCCO2` (stereo unspecified) here?
Answer: The Potency was inconclusive: 18.5 µM [inhibitor, single point].

Question: For `CCOC(=O)c1ccc(NC(=O)c2c(C)[nH]c(C(=O)OCC)c2C)cc1`, which “activity change, negative = inhibition” value is on record?
Answer: Its value is inactive: 58%.

Question: With `COc1ccc(N2CC(C)Cn3c2nc2c3c(=O)n(Cc3ccc(C)cc3)c(=O)n2C)c(OC)c1` (stereo unspecified) as the compound, how does the Potency read?
Answer: Its Potency is inconclusive: 16.5 µM [inhibitor, single point].

Question: For `CCC1C(=O)NCCN1Cc1nc(-c2ccc(C)s2)oc1C` (stereo unspecified), which Potency is on record?
Answer: The Potency was inconclusive: 10.4 µM [inhibitor, single point].

Question: For `CCC(=O)NC(=S)Nc1cccc(NC(=O)c2ccco2)c1`, which Potency is on record?
Answer: Its Potency is inconclusive: 11.7 µM [inhibitor, single point].

Question: Which “activity change, negative = inhibition” value does the source give for `CCc1cccc(C)c1NC(=O)CCNC(=O)c1cccc(C)c1` here?
Answer: Its value is inactive: 0.763%.

Question: Which “activity change, negative = inhibition” value does the source give for `C=CCN1C(=O)/C(=C/c2ccc(OC(C)=O)c(OCC)c2[N+](=O)[O-])SC1=S` here?
Answer: Its value is inactive: 23.1%.

Question: Which Potency does the source give for `COc1ccc(C(=O)NC(=S)Nc2ccccc2N2CCN(S(C)(=O)=O)CC2)cc1OC` here?
Answer: Its Potency is inconclusive: 4.15 µM [inhibitor, partial curve, poor fit].

Question: Which Potency does the source give for `COc1cccc(C(=O)N2CCN(c3ccc(N4CCOCC4)nn3)CC2)c1` here?
Answer: Its Potency is inconclusive: 18.5 µM [inhibitor, single point].

Question: For `CCN(CCCNC(=O)CCn1c(=S)[nH]c2cc3c(cc2c1=O)OCO3)c1cccc(C)c1`, which Potency is on record?
Answer: The Potency was inconclusive: 13.1 µM [inhibitor, single point].

Question: With `COCCn1c(SCc2ccc(OC)c(F)c2)nnc1-c1ccncc1` as the compound, how does the “activity change, negative = inhibition” value read?
Answer: Its value is inactive: -5.49%.

Question: Which Potency does the source give for `C=CCNC(=O)/C(C#N)=C/c1c(N(Cc2ccccc2)Cc2ccccc2)nc2ccccn2c1=O` here?
Answer: Its Potency is active: 9.28 µM.

Question: With `Cc1cc(C)c[n+](CC(=O)c2ccc(C)c([N+](=O)[O-])c2)c1` as the compound, how does the Potency read?
Answer: Its Potency is inconclusive: 0.329 µM [inhibitor, partial curve].

Question: With `COc1ccc(OCc2nc3c4c(ncn3n2)-c2ccccc2CC42CCCC2)cc1` as the compound, how does the Potency read?
Answer: Its Potency is active: 13.1 µM.

Question: With `O=C(C1=C[C@H](c2csc3ccccc23)C[C@H](OCc2ccc(CO)cc2)O1)N1CCOCC1` as the compound, how does the Potency read?
Answer: The Potency was inconclusive: 11.7 µM [inhibitor, single point].

Question: With `Clc1ccc(/C=N/Nc2nn[nH]n2)cc1` as the compound, how does the “activity change, negative = inhibition” value read?
Answer: The value was inactive: -10.7%.

Question: For `CC(C)(O)c1cn(-c2nonc2N)nn1`, which “activity change, negative = inhibition” value is on record?
Answer: Its value is inactive: 12.2%.

Question: For `CCCCn1c(O)c(N=Nc2ccccn2)c2ccccc21`, which Potency is on record?
Answer: The Potency was inconclusive: 14.7 µM [inhibitor, partial curve, poor fit].

Question: For `Cc1ccc(C2(C)NC(=O)N(CC(=O)NC(C)c3ccccc3)C2=O)cc1` (stereo unspecified), which “activity change, negative = inhibition” value is on record?
Answer: Its value is inactive: -7.22%.

Question: For `Cc1ccc(Cn2nc(-c3ccccc3)nc2-c2ccccc2)cc1`, which “activity change, negative = inhibition” value is on record?
Answer: The value was inactive: 152%.

Question: With `COc1ccc(S(=O)(=O)Cc2ccc(C(=O)N3CC(C)CC(C)C3)o2)cc1` (stereo unspecified) as the compound, how does the Potency read?
Answer: The Potency was inconclusive: 18.5 µM [inhibitor, single point].

Question: Which Potency does the source give for `O=C(c1cccs1)N1CCN=C1SCc1ccccc1F` here?
Answer: The Potency was inconclusive: 10.4 µM [inhibitor, single point].

Question: Which Potency does the source give for `Fc1ccccc1-c1nc2ccccc2[nH]1` here?
Answer: Its Potency is active: 13.1 µM.

Question: For `Cc1cc(C)n(CC(O)COc2ccccc2[N+](=O)[O-])n1` (stereo unspecified), which Potency is on record?
Answer: The Potency was inconclusive: 18.5 µM [inhibitor, single point].

Question: With `Cc1cc(/C=C2/NC(=S)NC2=O)c(C)n1-c1cccnc1` as the compound, how does the “activity change, negative = inhibition” value read?
Answer: Its value is inactive: 7%.

Question: For `O=C(O)c1ccc2c(=O)n3c(nc2c1)/C(=C/c1ccc(Cl)c(Cl)c1)CC3`, which Potency is on record?
Answer: Its Potency is inconclusive: 14.7 µM [inhibitor, single point].

Question: For `O=C(C1CCN(S(=O)(=O)N2CCOCC2)CC1)N1CCc2ccccc21`, which Potency is on record?
Answer: Its Potency is inconclusive: 9.28 µM [inhibitor, single point].

Question: Which Potency does the source give for `O=C(c1cc(COc2ccc(F)cc2Cl)on1)N1C[C@H]2CC[C@H]1C2` here?
Answer: Its Potency is inconclusive: 7.38 µM [inhibitor, partial curve].

Question: For `COCCC(=O)N1CCC(Oc2ccc(C(=O)N(C)C(C)c3ccon3)cc2)CC1` (stereo unspecified), which Potency is on record?
Answer: The Potency was inconclusive: 10.4 µM [inhibitor, partial curve, poor fit].

Question: Which activity change, negative = inhibition does the source give for `COc1ccc(N(CC(=O)Nc2ccccc2F)S(=O)(=O)c2ccc(C)c([N+](=O)[O-])c2)cc1` here?
Answer: Its activity change, negative = inhibition is inactive: 10.1% [at 5.75 µM].

Question: With `COc1ccc(C2CC3(CC(C)(C)NC(=S)N3)Oc3cc(O)cc(C)c32)cc1` (stereo unspecified) as the compound, how does the Potency read?
Answer: The Potency was active: 4.15 µM.

Question: Which Potency does the source give for `CCc1ccc(OCc2nnc(SCc3ccc(C(=O)O)cc3)o2)cc1` here?
Answer: Its Potency is inconclusive: 1.65 µM [inhibitor, full curve, poor fit].

Question: For `O=C(CN1CCN(c2ccc(F)cc2)CC1)Nc1cccc(C(F)(F)F)c1`, which Potency is on record?
Answer: The Potency was inconclusive: 0.0041 µM [inhibitor, full curve, poor fit].

Question: Which “activity change, negative = inhibition” value does the source give for `CC(C)OCCCNC(=O)C(NS(=O)(=O)c1ccc2c(c1)c(=O)n(C)c(=O)n2C)c1ccccc1` (stereo unspecified) here?
Answer: Its value is inactive: -17.3%.

Question: Which Potency does the source give for `CCOC(=O)/C(=C/c1ccco1)NC(=O)c1ccc(Br)o1` here?
Answer: The Potency was inconclusive: 8.28 µM [inhibitor, partial curve, poor fit].
